No constants are given. Whether binding was seen depends on the method and setting. In cells and extracts the contact can be indirect. Some entries that bind do so weakly or less than the wild type. Tags and fused reporters may be left off the sequences shown.
Target: T1, F-TR8-615 (FLAG epitope-tagged TR8, residues 33-615 of FIGS. 1A-C) (human) (UniProt Q9Y6Q6)
T1 sequence: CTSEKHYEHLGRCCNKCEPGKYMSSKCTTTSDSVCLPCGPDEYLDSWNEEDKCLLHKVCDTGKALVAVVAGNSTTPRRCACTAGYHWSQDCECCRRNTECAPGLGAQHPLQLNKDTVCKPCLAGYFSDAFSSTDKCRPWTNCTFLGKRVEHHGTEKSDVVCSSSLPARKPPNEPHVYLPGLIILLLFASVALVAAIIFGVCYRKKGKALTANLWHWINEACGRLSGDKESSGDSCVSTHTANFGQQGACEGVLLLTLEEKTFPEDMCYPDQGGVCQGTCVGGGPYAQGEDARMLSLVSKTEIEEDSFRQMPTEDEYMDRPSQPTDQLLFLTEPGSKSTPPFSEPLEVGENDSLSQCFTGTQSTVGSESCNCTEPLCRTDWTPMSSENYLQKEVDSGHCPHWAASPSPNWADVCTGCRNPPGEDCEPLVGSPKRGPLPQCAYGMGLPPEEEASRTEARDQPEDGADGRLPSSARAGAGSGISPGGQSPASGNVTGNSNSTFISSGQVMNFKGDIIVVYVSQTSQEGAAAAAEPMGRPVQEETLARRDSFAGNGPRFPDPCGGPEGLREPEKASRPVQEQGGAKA
Assay: anti-FLAG co-immunoprecipitation from HeLa and 293 lysates, anti-TRAF2 western blot

B1: endogenous TRAF2 (of HeLa and 293 cells) (protein, human, UniProt Q12933 2-501, looked up)
chain: AAASVTPPGSLELLQPGFSKTLLGTKLEAKYLCSACRNVLRRPFQAQCGHRYCSFCLASILSSGPQNCAACVHEGIYEEGISILESSSAFPDNAARREVESLPAVCPSDGCTWKGTLKEYESCHEGRCPLMLTECPACKGLVRLGEKERHLEHECPERSLSCRHCRAPCCGADVKAHHEVCPKFPLTCDGCGKKKIPREKFQDHVKTCGKCRVPCRFHAIGCLETVEGEKQQEHEVQWLREHLAMLLSSVLEAKPLLGDQSHAGSELLQRCESLEKKTATFENIVCVLNREVERVAMTAEACSRQHRLDQDKIEALSSKVQQLERSIGLKDLAMADLEQKVLEMEASTYDGVFIWKISDFARKRQEAVAGRIPAIFSPAFYTSRYGYKMCLRIYLNGDGTGRGTHLSLFFVVMKGPNDALLRWPFNQKVTLMLLDQNNREHVIDAFRPDVTSSSFQRPVNDMNIASGCPLFCPVSKMEAKNSYVRDDAIFIKAIVDLTGL
binding: binds

From patent US20030100069A1 (Human Genome Sciences, published 2003)
